Data as given in paper PMC6030054.
No constants are given. Whether binding was seen depends on the method and setting. In cells and extracts the contact can be indirect. Binding can be weak; no strength is given.

Biological target: T1, RXRα, endogenous mouse (mouse (endogenous in primary mouse hepatocytes)) (UniProt P28700)
T1 sequence: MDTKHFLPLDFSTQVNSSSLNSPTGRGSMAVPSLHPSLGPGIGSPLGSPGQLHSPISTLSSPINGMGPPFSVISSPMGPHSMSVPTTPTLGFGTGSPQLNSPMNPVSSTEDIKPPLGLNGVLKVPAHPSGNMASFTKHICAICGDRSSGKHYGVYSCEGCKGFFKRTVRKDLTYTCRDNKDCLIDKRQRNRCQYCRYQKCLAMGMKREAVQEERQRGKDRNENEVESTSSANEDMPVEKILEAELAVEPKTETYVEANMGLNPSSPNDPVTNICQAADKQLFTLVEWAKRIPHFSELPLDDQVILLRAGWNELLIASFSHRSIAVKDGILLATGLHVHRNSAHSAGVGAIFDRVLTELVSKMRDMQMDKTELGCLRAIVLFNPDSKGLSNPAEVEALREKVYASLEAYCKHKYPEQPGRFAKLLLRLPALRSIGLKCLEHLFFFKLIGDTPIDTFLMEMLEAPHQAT
Experiment: co-IP; extracts of PMH from FXR-KO mice infected with Ad-flag-FXR WT or Y67F-FXR (or transfected with siRNA for Src), treated with FGF19 for 30 min; FXR in anti-RXRα immunoprecipitates detected by IB

## flag-FXR-WT (3xFlag-human FXR), adenovirally expressed in primary mouse hepatocytes
  binding: binds
